Experimental data: PubChem BioAssay AID1508588 (Peter MacCallum Cancer Centre, 2020)

Aim: 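Knock-downs boosting vemurafenib effects on melanoma cell growth or lactate release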 (primary screen)
System: human WM266.4 melanoma cells (BRAF V600 mutant)
Reagent: siRNA pool against human genes, 40 nM
Duration: 96 h from transfection to read-out
Challenge: vemurafenib 300 nM (about IC25), added 48 h after transfection, for 48 h; comparison arm got DMSO vehicle only
Measurement: 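Cell gain (DAPI nuclei at end minus before drug, mean of two replicates) and medium lactate by absorbance per cell, both as ratio to non-targeting siRNA, also grouped into fold-change classes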
Direction: cell gain with vemurafenib: higher = more cell gain than with non-targeting siRNA; lactate per cell with vemurafenib: higher = more lactate made per cell
Call rule: 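a knock-down counts as enhancing when its fold-change classes with vehicle and with vemurafenib, taken together, show a stronger drug effect on cell gain or lactate per cell; exact class pairs not stated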
Calls: active = enhances vemurafenib effect; inactive = no enhancement seen
The whole screen tested about 18,000 reagents; shown is an unselected part. Over the whole deposit, 790 (4.4%) are marked active. 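Calls rest on a combination of fold-change classes in drug and vehicle arms, not all shown here.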

ATP5F1B
- cell gain with vemurafenib: 0.14
- lactate per cell with vemurafenib: 2.21
- Outcome: inactive

ZNF117
- cell gain with vemurafenib: 0.09
- lactate per cell with vemurafenib: 1
- Outcome: inactive

RAVER1
- cell gain with vemurafenib: 1.04
- lactate per cell with vemurafenib: 1.27
- Outcome: inactive

DEPP1
- cell gain with vemurafenib: 0.49
- lactate per cell with vemurafenib: 0.68
- Outcome: inactive

LRRIQ4
- cell gain with vemurafenib: 0.36
- lactate per cell with vemurafenib: 0.8
- Outcome: inactive

SGPL1
- cell gain with vemurafenib: 0.44
- lactate per cell with vemurafenib: 0.94
- Outcome: inactive

GLRA4
- cell gain with vemurafenib: 0.74
- lactate per cell with vemurafenib: 1.19
- Outcome: inactive

FASTK
- cell gain with vemurafenib: 0.58
- lactate per cell with vemurafenib: 1.8
- Outcome: inactive

SPC25
- cell gain with vemurafenib: 0.18
- lactate per cell with vemurafenib: 2.25
- Outcome: inactive

HDAC2
- cell gain with vemurafenib: 0.37
- lactate per cell with vemurafenib: 0.67
- Outcome: inactive

FJX1
- cell gain with vemurafenib: 0.55
- lactate per cell with vemurafenib: 0.72
- Outcome: inactive

An excerpt taken from the entries so far, for reference:
SGPL1
- cell gain with vemurafenib: 0.44
- lactate per cell with vemurafenib: 0.94
- Outcome: inactive

GLRA4
- cell gain with vemurafenib: 0.74
- lactate per cell with vemurafenib: 1.19
- Outcome: inactive

FASTK
- cell gain with vemurafenib: 0.58
- lactate per cell with vemurafenib: 1.8
- Outcome: inactive

Continued.
HNRNPH2
- cell gain with vemurafenib: 0.9
- lactate per cell with vemurafenib: 0.82
- Outcome: inactive

KDM5B
- cell gain with vemurafenib: 0.99
- lactate per cell with vemurafenib: 0.92
- Outcome: inactive

F2
- cell gain with vemurafenib: 0.51
- lactate per cell with vemurafenib: 0.9
- Outcome: inactive

ORM1
- cell gain with vemurafenib: 0.42
- lactate per cell with vemurafenib: 0.97
- Outcome: inactive

ZNF423
- cell gain with vemurafenib: 0.54
- lactate per cell with vemurafenib: 0.98
- Outcome: inactive

NANP
- cell gain with vemurafenib: 0.17
- lactate per cell with vemurafenib: 1.08
- Outcome: inactive

DNAJA2
- cell gain with vemurafenib: 0.65
- lactate per cell with vemurafenib: 0.57
- Outcome: inactive

CDIPT
- cell gain with vemurafenib: 0.62
- lactate per cell with vemurafenib: 1.27
- Outcome: inactive

CREG2
- cell gain with vemurafenib: 0.33
- lactate per cell with vemurafenib: 1.37
- Outcome: inactive

ANLN
- cell gain with vemurafenib: 0.05
- lactate per cell with vemurafenib: 1.72
- Outcome: inactive

TNFRSF13B
- cell gain with vemurafenib: -0.05
- lactate per cell with vemurafenib: 1.68
- Outcome: inactive

SYT3
- cell gain with vemurafenib: 1.17
- lactate per cell with vemurafenib: 0.76
- Outcome: inactive

OR6X1
- cell gain with vemurafenib: 0.2
- lactate per cell with vemurafenib: 1.69
- Outcome: inactive

ADH1A
- cell gain with vemurafenib: 0.78
- lactate per cell with vemurafenib: 0.7
- Outcome: inactive

KIF17
- cell gain with vemurafenib: 0.6
- lactate per cell with vemurafenib: 0.91
- Outcome: inactive

PNMA3
- cell gain with vemurafenib: 0.48
- lactate per cell with vemurafenib: 0.8
- Outcome: inactive
